Data as given in PubChem BioAssay AID1259308 (NCATS, 2017).
The deposit covers about 59,000 reagents; shown is a part drawn at random. About 1,510 of all reagents (2.6%) were called active. 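Calls use total luciferase alone and ignore viability, so some active siRNAs may act by altering cell number.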 Reagents against one gene are numbered here. Not all columns of the deposit are shown. Reagent sequences are not shown.

- Assay: 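Candidate targets for better recombinant protein yield in mammalian cells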 (primary screen)
- Cells: human HEK293 embryonic kidney cells stably expressing firefly luciferase (HEK-CMV-Luc2-Hygro)
- Knock-down reagent: single siRNA against human genes, 0.8 pmol siRNA per well
- Time to read-out: 72 h
- Detection: 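Luciferase light (ONE-Glo) measured on one replicate plate set and viability (CellTiter-Glo) on the other, scaled to a negative control siRNA, with robust z-scores and luciferase per cell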
- Scale: total luciferase, z-score and total luciferase, % of control: higher = more reporter protein produced; luciferase per cell, z-score: higher = more reporter output per viable cell
- Call rule: 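An siRNA counts as active if its total luciferase robust z-score exceeds 3; genes with two or more such siRNAs out of three were retested with fresh siRNAs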
- Calls: active = raised luciferase; inactive = no rise

no.	gene	siRNA no.	total luciferase, z-score	total luciferase, % of control	luciferase per cell, z-score	Outcome
1	ACTL7B	1	2.09	123	1.36	inactive
2	ACTL7B	2	-0.224	77.4	-0.42	inactive
3	ACTL7B	3	-0.127	79.4	-0.525	inactive
4	RAVER1	1	-0.609	69.8	-0.35	inactive
5	RAVER1	2	-2.48	32.5	-1.82	inactive
6	RAVER1	3	-1.7	48.1	-2.46	inactive
7	SYNGR2	1	-0.447	73	-0.82	inactive
8	SYNGR2	2	-0.209	77.7	-0.35	inactive
9	SYNGR2	3	-0.22	77.5	0.321	inactive
10	RASAL1	1	-2.01	41.8	-3.12	inactive
11	RASAL1	2	-1.65	49.1	-1.28	inactive
12	RASAL1	3	1.11	104	0.355	inactive
13	XPO1	1	-0.75	67	-0.133	inactive
14	XPO1	2	-0.679	68.4	-0.000761	inactive
15	XPO1	3	-0.862	64.7	0.105	inactive
16	ABI2	1	-0.0801	80.3	-0.665	inactive
17	ABI2	2	0.34	88.7	-0.384	inactive
18	ABI2	3	-0.105	79.8	-0.169	inactive
19	EIF3LP3	1	-1.63	49.4	-0.278	inactive
20	EIF3LP3	2	-0.385	74.2	0.0963	inactive
21	EIF3LP3	3	0.529	92.4	0.17	inactive
22	THSD7A	1	-0.241	77.1	-0.166	inactive
23	THSD7A	2	0.623	94.3	0.2	inactive
24	THSD7A	3	-0.153	78.8	0.862	inactive

An excerpt of the results above, as a working copy:
no.	gene	siRNA no.	total luciferase, z-score	total luciferase, % of control	luciferase per cell, z-score	Outcome
2	ACTL7B	2	-0.224	77.4	-0.42	inactive
3	ACTL7B	3	-0.127	79.4	-0.525	inactive
